According to patent publication US20060222657A1, “Polypeptide transduction and fusogenic peptides” (priority 2003, published 2006):

Assays:
tex.loxP.EG cells = assay: TAT-Cre mediated recombination of lox-stop-lox eGFP reporter, flow cytometry of live cells; type: cell-based, murine
mammalian cells = assay: TAT-Cre transduction efficiency and cytotoxicity with endosomal release agents (summary statement); type: cell-based

For “GLFGAIAGFIENGWEGMIDGGRKKRRQRRR [HA2-TAT]”, the “effect of peptide on TAT-Cre recombination (in words)” value (tex.loxP.EG cells) was “efficiency of TAT-Cre recombination is enhanced”, the “increase in recombination, TAT-Cre in combination with peptide” value (tex.loxP.EG cells) was over 10 fold and the cytotoxicity (mammalian cells) was “absence of cytotoxicity”. The “effect on transduction efficiency of TAT-Cre” value (mammalian cells) was “greater than ten-fold”.
